Laboratory results: the supplement of paper PMC10849652
The other results are listed elsewhere or left out.

The chains behind the UniProt entries cited, without tags or fusion partners. Where a name states a change or a piece, a line headed by the entry shows the natural chain unless it says otherwise.
UniProt Q9H4I9: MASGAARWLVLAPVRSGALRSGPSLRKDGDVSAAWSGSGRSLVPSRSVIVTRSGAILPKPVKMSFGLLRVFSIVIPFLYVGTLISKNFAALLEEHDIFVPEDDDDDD
UniProt P58511: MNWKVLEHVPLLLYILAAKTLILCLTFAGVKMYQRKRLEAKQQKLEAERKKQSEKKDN
UniProt B2RUZ4: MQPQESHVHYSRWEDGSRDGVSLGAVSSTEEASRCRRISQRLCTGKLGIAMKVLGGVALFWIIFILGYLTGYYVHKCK
UniProt Q9NXE4: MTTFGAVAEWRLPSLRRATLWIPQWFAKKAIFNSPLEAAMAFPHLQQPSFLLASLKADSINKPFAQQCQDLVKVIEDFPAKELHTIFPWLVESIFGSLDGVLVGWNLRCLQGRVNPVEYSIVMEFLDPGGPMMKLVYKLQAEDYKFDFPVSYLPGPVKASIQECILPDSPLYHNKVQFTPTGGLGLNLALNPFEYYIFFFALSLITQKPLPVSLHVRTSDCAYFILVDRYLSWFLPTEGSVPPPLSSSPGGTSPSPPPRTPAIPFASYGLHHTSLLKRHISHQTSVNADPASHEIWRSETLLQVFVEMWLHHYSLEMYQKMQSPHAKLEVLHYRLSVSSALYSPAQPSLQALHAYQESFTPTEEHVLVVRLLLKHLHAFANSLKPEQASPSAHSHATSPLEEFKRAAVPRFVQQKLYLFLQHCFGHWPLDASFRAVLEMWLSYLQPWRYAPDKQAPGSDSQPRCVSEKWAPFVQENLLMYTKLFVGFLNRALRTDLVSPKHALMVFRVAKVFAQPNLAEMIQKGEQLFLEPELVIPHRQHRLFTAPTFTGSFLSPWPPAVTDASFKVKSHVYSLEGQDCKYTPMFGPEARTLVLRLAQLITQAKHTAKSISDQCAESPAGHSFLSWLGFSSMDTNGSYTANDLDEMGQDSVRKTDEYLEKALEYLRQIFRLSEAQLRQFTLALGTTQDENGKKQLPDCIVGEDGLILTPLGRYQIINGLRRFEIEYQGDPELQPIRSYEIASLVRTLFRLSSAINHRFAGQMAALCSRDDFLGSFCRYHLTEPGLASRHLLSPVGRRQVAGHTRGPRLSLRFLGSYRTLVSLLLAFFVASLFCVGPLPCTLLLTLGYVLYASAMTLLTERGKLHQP
UniProt Q8N5G0: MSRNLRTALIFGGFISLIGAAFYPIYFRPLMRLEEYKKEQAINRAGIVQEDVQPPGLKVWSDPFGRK
UniProt Q9NX45: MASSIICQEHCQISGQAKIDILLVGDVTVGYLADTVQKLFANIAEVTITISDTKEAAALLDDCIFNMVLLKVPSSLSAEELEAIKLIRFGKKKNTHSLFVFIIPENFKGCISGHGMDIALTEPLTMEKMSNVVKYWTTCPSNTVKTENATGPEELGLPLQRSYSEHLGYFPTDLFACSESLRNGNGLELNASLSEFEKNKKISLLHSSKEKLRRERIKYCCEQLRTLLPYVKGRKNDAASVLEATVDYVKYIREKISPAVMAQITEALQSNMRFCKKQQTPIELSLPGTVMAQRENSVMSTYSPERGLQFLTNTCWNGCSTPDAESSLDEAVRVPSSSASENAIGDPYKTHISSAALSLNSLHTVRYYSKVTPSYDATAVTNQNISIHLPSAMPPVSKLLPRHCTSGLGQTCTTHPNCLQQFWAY
UniProt Q8IYR2: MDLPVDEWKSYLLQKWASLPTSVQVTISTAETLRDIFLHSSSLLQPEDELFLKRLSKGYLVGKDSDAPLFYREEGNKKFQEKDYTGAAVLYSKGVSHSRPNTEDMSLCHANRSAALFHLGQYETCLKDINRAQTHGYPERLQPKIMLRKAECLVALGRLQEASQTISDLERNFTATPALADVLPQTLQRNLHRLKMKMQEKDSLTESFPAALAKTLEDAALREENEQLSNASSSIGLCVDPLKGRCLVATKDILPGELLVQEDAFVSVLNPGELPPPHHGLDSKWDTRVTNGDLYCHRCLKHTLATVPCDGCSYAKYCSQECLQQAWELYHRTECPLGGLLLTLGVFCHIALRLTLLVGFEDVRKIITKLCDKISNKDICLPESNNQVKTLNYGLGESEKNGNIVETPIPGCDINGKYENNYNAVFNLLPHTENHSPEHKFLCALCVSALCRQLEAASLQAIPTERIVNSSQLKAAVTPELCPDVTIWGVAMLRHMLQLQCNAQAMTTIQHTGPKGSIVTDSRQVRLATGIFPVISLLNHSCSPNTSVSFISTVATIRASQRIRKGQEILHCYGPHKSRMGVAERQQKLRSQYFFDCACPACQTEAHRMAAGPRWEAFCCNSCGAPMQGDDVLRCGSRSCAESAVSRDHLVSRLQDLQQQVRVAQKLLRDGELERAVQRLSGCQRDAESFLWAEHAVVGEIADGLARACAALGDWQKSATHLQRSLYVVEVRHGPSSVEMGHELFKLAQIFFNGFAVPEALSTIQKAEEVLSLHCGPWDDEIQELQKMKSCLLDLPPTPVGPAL
UniProt Q96E16: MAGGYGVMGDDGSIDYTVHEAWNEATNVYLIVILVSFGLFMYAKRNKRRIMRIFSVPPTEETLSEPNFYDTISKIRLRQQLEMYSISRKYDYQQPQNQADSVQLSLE
UniProt Q92543: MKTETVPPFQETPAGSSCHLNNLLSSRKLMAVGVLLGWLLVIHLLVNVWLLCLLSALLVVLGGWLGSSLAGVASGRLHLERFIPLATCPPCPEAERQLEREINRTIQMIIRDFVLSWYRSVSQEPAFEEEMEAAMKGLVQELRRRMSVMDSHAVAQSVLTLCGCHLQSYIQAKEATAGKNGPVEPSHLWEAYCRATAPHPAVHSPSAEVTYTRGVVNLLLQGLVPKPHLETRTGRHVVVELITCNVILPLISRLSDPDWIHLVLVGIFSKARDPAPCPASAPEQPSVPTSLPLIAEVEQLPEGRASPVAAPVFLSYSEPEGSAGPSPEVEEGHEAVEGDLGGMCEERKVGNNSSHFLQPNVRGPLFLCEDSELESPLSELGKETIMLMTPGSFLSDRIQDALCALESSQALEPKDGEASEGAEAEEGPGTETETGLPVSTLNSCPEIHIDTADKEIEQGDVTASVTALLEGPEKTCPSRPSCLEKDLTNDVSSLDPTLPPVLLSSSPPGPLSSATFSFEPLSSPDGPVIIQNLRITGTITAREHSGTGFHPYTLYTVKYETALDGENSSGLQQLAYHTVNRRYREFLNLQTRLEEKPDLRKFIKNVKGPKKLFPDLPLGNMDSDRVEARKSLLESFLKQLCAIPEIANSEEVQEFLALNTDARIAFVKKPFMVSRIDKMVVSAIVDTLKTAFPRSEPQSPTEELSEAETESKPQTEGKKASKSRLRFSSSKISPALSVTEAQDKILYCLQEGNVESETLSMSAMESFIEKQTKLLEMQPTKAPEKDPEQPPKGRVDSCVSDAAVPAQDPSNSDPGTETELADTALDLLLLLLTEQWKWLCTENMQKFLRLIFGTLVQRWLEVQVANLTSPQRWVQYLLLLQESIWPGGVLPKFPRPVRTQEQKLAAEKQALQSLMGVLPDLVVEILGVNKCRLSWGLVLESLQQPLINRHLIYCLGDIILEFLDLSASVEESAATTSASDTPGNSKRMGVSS
UniProt Q02086: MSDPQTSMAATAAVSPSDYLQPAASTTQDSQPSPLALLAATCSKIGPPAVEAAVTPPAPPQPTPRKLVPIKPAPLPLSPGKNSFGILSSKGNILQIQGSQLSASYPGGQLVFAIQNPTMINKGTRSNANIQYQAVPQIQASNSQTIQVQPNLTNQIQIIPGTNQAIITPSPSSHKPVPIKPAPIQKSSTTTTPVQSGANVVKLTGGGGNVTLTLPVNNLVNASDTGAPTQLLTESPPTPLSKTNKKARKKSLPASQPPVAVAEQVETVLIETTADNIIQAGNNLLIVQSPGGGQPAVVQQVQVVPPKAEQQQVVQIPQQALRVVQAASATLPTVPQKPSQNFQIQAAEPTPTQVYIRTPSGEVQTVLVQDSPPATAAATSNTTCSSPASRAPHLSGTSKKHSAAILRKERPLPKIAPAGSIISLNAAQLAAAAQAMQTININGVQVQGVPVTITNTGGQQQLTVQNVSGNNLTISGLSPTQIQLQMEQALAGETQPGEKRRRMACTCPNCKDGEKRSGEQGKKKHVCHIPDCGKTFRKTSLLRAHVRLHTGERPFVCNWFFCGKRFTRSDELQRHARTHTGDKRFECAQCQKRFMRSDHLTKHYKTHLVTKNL
UniProt Q16533: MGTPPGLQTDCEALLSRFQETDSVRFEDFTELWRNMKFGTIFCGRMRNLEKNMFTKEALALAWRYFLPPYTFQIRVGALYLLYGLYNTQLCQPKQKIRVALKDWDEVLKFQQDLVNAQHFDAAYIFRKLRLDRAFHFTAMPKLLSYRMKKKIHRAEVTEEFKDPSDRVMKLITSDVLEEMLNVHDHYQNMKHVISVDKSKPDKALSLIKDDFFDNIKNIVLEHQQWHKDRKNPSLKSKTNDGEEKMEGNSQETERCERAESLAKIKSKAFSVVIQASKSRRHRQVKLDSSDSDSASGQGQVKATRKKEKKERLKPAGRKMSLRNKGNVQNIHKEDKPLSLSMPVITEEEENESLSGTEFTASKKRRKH
UniProt P02814: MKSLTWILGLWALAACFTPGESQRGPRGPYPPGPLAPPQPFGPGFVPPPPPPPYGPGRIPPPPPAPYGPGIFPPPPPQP
UniProt Q6X4U4: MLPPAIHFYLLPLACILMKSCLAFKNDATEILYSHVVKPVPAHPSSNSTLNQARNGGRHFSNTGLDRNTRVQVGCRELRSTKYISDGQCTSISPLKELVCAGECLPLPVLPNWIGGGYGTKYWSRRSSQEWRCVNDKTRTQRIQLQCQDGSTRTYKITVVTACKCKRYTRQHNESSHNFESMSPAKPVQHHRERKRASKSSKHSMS
UniProt O60906: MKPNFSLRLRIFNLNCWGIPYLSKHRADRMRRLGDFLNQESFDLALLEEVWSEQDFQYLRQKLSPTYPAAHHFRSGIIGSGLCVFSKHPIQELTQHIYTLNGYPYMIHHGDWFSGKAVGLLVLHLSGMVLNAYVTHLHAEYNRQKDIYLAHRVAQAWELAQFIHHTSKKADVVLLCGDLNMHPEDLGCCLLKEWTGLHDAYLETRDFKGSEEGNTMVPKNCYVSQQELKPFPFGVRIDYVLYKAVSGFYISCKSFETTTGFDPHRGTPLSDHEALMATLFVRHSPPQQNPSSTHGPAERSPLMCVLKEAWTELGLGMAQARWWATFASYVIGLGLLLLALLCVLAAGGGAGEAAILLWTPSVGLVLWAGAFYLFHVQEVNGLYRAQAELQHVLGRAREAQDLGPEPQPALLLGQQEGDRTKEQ
UniProt Q8TAQ2, whole entry, looked up: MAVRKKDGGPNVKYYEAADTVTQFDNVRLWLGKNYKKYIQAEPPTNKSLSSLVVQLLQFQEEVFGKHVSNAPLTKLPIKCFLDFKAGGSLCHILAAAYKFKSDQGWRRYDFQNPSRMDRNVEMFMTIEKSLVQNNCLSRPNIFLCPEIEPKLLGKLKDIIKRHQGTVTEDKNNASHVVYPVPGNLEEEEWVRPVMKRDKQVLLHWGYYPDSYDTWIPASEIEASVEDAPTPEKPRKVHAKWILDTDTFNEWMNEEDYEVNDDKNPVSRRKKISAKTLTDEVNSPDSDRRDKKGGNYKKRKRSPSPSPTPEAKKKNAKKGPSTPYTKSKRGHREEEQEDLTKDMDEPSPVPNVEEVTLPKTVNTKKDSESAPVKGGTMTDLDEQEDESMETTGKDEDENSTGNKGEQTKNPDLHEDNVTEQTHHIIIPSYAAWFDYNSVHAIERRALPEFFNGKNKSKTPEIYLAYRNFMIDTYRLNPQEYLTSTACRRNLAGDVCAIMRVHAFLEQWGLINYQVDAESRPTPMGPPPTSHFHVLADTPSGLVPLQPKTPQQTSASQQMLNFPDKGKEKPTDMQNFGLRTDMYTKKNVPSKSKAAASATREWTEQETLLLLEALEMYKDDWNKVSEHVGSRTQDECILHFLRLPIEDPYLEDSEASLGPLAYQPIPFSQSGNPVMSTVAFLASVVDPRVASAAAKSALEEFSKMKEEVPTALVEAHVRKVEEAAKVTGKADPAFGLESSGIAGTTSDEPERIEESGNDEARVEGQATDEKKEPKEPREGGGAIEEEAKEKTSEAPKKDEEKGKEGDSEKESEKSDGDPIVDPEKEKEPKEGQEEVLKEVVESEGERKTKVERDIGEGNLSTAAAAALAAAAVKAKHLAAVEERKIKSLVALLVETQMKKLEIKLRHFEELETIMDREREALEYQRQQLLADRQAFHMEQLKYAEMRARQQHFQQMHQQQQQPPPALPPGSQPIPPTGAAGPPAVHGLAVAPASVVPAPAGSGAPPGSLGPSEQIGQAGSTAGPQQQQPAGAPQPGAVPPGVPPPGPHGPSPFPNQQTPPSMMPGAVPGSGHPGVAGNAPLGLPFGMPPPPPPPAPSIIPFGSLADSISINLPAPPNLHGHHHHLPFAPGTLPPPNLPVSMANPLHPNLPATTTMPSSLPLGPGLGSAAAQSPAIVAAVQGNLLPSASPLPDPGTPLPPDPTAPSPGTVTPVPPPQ
UniProt Q9NS25: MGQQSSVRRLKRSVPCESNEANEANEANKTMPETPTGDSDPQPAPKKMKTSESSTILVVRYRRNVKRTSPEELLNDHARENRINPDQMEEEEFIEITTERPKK
UniProt P0DMW3: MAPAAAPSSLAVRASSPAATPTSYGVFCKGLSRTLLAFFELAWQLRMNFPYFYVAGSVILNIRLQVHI

How the values were obtained:
Experiment in all cases: log2 fold change, soluble protein after heating vs DMSO (PISA); higher = thermal stabilisation; K562 lysate, 10 uM; active = over 0.2 and 3.5 SD of the protein, either way, in both replicates (recomputed)
[1] = compound: CCCS(=O)(=O)Nc1ccc(F)c(C(=O)c2c[nH]c3ncc(Cl)cc23)c1F
Method in brief: (§1)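 Thermal stability, expressed as log-two fold change relative to solvent controls, is given from duplicates. Crude K562 extract in PBS pH 7.4 with 1 mM MgCl2, at 1 mg/mL protein, was treated with 10 μM compound for 30 min and heated in aliquots for 3 min across 48°C-58°C. After pooling, adjustment to 0.5% NP-40 at 4°C and centrifugation at 21,000xg for 90 min, supernatant protein was measured by TMTpro 16plex LC-MS/MS with channel sums equalised.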

barasertib = compound: CCN(CCCOc1ccc2c(Nc3cc(CC(=O)Nc4cccc(F)c4)[nH]n3)ncnc2c1)CCOP(=O)(O)O [barasertib]
Method in brief: as §1

volasertib = compound: CC[C@@H]1C(=O)N(C)c2cnc(Nc3ccc(C(=O)N[C@H]4CC[C@H](N5CCN(CC6CC6)CC5)CC4)cc3OC)nc2N1C(C)C [volasertib]
Method in brief: as §1

[2] = compound: CCn1c(C(=O)N(C2CC2)C2CC2)cc2c3c(ncn3C)c(Nc3cc(C)n(C)n3)nc21
Method in brief: as §1

[3] = compound: CCn1cc(-c2ccnc3[nH]c(-c4cccc(CN(C)C)c4)cc23)c(-c2ccc(NC(=O)N(C)C)cc2)n1
Method in brief: as §1

[4] = compound: CN1CCC(CNc2ccc3ncc(-c4cccc(OC(F)(F)F)c4)n3n2)CC1
Method in brief: as §1

saracatinib = compound: CN1CCN(CCOc2cc(OC3CCOCC3)c3c(Nc4c(Cl)ccc5c4OCO5)ncnc3c2)CC1 [saracatinib]
Method in brief: as §1

vemurafenib = compound: CCCS(=O)(=O)Nc1ccc(F)c(C(=O)c2c[nH]c3ncc(-c4ccc(Cl)cc4)cc23)c1F [vemurafenib]
Method in brief: as §1

[5] = compound: CC[C@@H]1C(=O)N(C)c2cnc(Nc3ccc(C(=O)NC4CCN(C)CC4)cc3OC)nc2N1C1CCCC1
Method in brief: as §1

sotrastaurin = compound: CN1CCN(c2nc(C3=C(c4c[nH]c5ccccc45)C(=O)NC3=O)c3ccccc3n2)CC1 [sotrastaurin]
Method in brief: as §1

Measured: log2 fold change

SMDT1 (UniProt Q9H4I9)
inactive: [1] -0.011 | barasertib -0.054 | volasertib 0.035 | [2] -0.051 | [3] -0.101 | [4] 0.006 | saracatinib 0.033

SMIM11A (UniProt P58511)
inactive: vemurafenib 0.035 | [1] -0.288 | [5] -0.302 | volasertib -0.016 | sotrastaurin 0.046

SMIM1 (UniProt B2RUZ4)
inactive: [1] 0.013 | barasertib 0.002 | [5] -0.108 | volasertib 0.026 | [2] -0.096 | [3] -0.036 | [4] -0.222 | sotrastaurin 0.088

SMPD4 isoform 4 (UniProt Q9NXE4)
inactive: vemurafenib -0.033 | barasertib 0.047 | [5] -0.145 | [2] 0.062 | [3] 0.078 | [4] -0.018

SMC1B isoform 3 (UniProt Q8NDV3)
inactive: vemurafenib 0.149 | [1] 0.002 | barasertib 0.003 | [5] -0.073 | volasertib 0.024 | [2] -0.071 | saracatinib 0.055 | sotrastaurin -0.02

SMIM20 isoform 2 (UniProt Q8N5G0)
inactive: vemurafenib 0.112 | [1] 0.027 | barasertib 0.111 | volasertib 0.042 | [3] 0.112 | [4] -0.051 | saracatinib -0.008 | sotrastaurin 0.122

SNAP23 isoform 2 (UniProt O00161)
inactive: vemurafenib 0.172 | [1] 0.09 | [5] 0.052 | volasertib 0.003 | [2] -0.029 | [3] 0.123 | [4] -0.061

SMPDL3A (UniProt Q92484)
inactive: vemurafenib 0.126 | [1] -0.066 | [5] 0.028 | volasertib -0.13

SOHLH2 isoform 3 (UniProt Q9NX45)
inactive: [1] 0.008 | barasertib -0.029 | [5] -0.038 | volasertib 0.078 | [2] -0.003 | [3] -0.029 | [4] 0.112 | saracatinib 0.038 | sotrastaurin 0.067

SMPD1 (UniProt P17405)
inactive: barasertib -0.112 | [2] 0.023 | saracatinib 0.042 | sotrastaurin 0.028

SMYD4 (UniProt Q8IYR2)
inactive: [2] -0.15 | [3] -0.18 | [4] 0.043 | saracatinib 0.366 | sotrastaurin 0.316

SNX24 (UniProt Q9Y343)
inactive: barasertib 0.215 | [5] -0.093 | [2] 0.138 | [3] -0.017 | [4] -0.084 | saracatinib 0.018 | sotrastaurin -0.028

SMIM19 (UniProt Q96E16)
inactive: [2] 0.064

Random excerpt: two entries already listed.
SMIM1 (UniProt B2RUZ4)
inactive: [1] 0.013 | barasertib 0.002 | [5] -0.108 | volasertib 0.026 | [2] -0.096 | [3] -0.036 | [4] -0.222 | sotrastaurin 0.088

SNX24 (UniProt Q9Y343)
inactive: barasertib 0.215 | [5] -0.093 | [2] 0.138 | [3] -0.017 | [4] -0.084 | saracatinib 0.018 | sotrastaurin -0.028

Next part

SNX19 (UniProt Q92543)
inactive: [5] 0.058 | [2] -0.044 | [3] 0.092 | [4] -0.291 | saracatinib -0.159 | sotrastaurin -0.007

SMOX isoform 6 (UniProt Q9NWM0)
inactive: [1] 0.204 | volasertib -0.089 | saracatinib 0.235

SNRNP25 (UniProt Q9BV90)
inactive: barasertib -0.005 | [2] 0.014

SNX25 (UniProt Q9H3E2)
inactive: [5] 0.111 | [2] 0.011 | saracatinib -0.013 | sotrastaurin 0.116

SMARCA4 isoform 4 (UniProt P51532)
inactive: [1] -0.047 | [5] 0.049 | volasertib 0.043 | [2] -0.192 | [3] -0.086 | [4] 0.057 | saracatinib 0.119 | sotrastaurin 0.325

SNRNP35 isoform 2 (UniProt Q16560)
inactive: [3] -0.288 | [4] 0.052 | saracatinib 0.132

SMIM4 (UniProt Q8WVI0)
inactive: [1] -0.147 | barasertib -0.041 | volasertib -0.057 | [2] -0.041 | [3] -0.231 | [4] -0.059 | sotrastaurin 0.021

SMIM13 (UniProt P0DJ93)
inactive: sotrastaurin 0.009

SNAP47 (UniProt Q5SQN1)
inactive: barasertib -0.08 | [5] 0.132 | [2] -0.016 | [3] -0.437 | [4] 0.147 | saracatinib 0.021 | sotrastaurin -0.049

SP2 (UniProt Q02086)
inactive: barasertib 0.083 | [5] 0.098 | saracatinib -0.13 | sotrastaurin 0

SNAPC1 (UniProt Q16533)
inactive: sotrastaurin 0.137

SNX10 (UniProt Q9Y5X0)
inactive: [2] -0.06 | saracatinib -0.008 | sotrastaurin 0.063

SNX29 (UniProt Q8TEQ0)
inactive: [5] 0.023 | [2] 0.213 | [3] 0.224 | [4] -0.328 | sotrastaurin -0.022

SNX33 (UniProt Q8WV41)
inactive: barasertib -0.177 | [2] 0.185 | saracatinib -0.029 | sotrastaurin 0.016

SON isoform 6 (UniProt P18583)
inactive: [2] 0.111

SMR3B (UniProt P02814)
inactive: [5] -0.07 | [2] -0.064 | [3] 0.032 | [4] 0.094 | sotrastaurin -0.244

SOSTDC1 isoform 2 (UniProt Q6X4U4)
inactive: saracatinib -0.029

SMC4 (UniProt C9JJ64)
inactive: barasertib 0.152

SMPD2 (UniProt O60906)
inactive: [1] 0.179 | [5] 0.051 | volasertib 0.032 | [2] -0.017 | [3] -0.003 | [4] -0.104 | saracatinib 0.018

SMARCC2 isoform 3 (UniProt Q8TAQ2)
inactive: [1] 0.159 | barasertib 0.132 | volasertib 0.151 | [2] 0.043 | saracatinib -0.053 | sotrastaurin -0.059

SMIM29 (UniProt Q86T20)
inactive: [1] 0.033 | volasertib 0.063

SPANXB1 (UniProt Q9NS25)
inactive: [3] -0.059 | [4] -0.043

SNX13 (UniProt Q9Y5W8)
inactive: barasertib 0.102 | [2] -0.006 | saracatinib -0.03 | sotrastaurin 0.019

SNAPC3 (UniProt Q92966)
inactive: barasertib 0.241 | [5] -0.098 | [3] 0.089 | [4] 0.087 | saracatinib 0.217 | sotrastaurin -0.197

SMIM10L1 (UniProt P0DMW3)
inactive: [3] 0.097 | [4] -0.098

SMARCD3 (UniProt Q6STE5)
inactive: saracatinib -0.039

SNRPA1 (UniProt H0YMA0)
inactive: [1] 0 | volasertib 0.069

SNAPC2 (UniProt Q13487)
inactive: barasertib -0.211 | [2] 0.04 | [3] 0.039 | [4] 0.048 | saracatinib 0.038 | sotrastaurin 0.154

SMIM26, A0A096LP01
inactive: [2] 0.033 | [3] 0.294 | [4] -0.424
